Among the data in publication PMC6297230, “Structural basis of meiotic telomere attachment to the nuclear envelope by MAJIN-TERB2-TERB1” (Nature Communications, 2018) are binding values, retold here.

T1: full length TERB2 (1–220) (human, UniProt Q8NHR7 1-220)
T1 construct: human TERB2, canonical isoform Q8NHR7, full length, amino acids 1-220; source: E. coli BL21 (DE3), co-expressed with MAJIN and TERB1, purified (Ni-NTA, amylose, ion exchange, SEC)
T1 sequence (looked up): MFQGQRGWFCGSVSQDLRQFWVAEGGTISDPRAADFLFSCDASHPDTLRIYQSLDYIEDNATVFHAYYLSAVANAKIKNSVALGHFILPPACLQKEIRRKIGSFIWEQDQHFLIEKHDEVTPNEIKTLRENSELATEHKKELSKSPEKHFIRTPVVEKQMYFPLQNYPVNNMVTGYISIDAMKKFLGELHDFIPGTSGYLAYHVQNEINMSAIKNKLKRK

T2: TERB1 TRF1-binding domain (amino acids 561–658) (human) (UniProt Q8NA31)
T2 sequence: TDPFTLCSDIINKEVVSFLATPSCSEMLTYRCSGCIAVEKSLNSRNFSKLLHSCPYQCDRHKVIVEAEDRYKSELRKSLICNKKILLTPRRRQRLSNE

B1: TERB1 TERB2-binding site (amino acids 585–642) (domain or fragment, human, UniProt Q8NA31 585-642, looked up)
chain: SEMLTYRCSGCIAVEKSLNSRNFSKLLHSCPYQCDRHKVIVEAEDRYKSELRKSLICN
notes: human TERB1, canonical isoform Q8NA31, amino acids 585-642; Forms large aggregates in isolation; also called TERB1T2B; T2B; source: E. coli BL21 (DE3), co-expressed with TERB2, purified (Ni-NTA, amylose, ion exchange, SEC)
B2: TERB2 N-terminal end, longer construct (amino acids 1–119) (domain or fragment, UniProt Q8NHR7 1-119)
chain: MFQGQRGWFCGSVSQDLRQFWVAEGGTISDPRAADFLFSCDASHPDTLRIYQSLDYIEDNATVFHAYYLSAVANAKIKNSVALGHFILPPACLQKEIRRKIGSFIWEQDQHFLIEKHDE
B3: TERB1 TRF1-binding domain (amino acids 561–658) (domain or fragment, human, UniProt Q8NA31 561-658, looked up)
chain: T2 sequence
notes: human TERB1, canonical isoform Q8NA31, amino acids 561-658; The discussion prints 568–658 once for TRFB; also called TERB1_(TRFB); TRFB; source: E. coli BL21 (DE3), co-expressed with TRF1 TRFH and/or TERB2, purified (Ni-NTA, amylose, ion exchange, SEC)
B4: TERB2 N-terminal end (amino acids 1–107) (domain or fragment, human, UniProt Q8NHR7 1-107, looked up)
chain: MFQGQRGWFCGSVSQDLRQFWVAEGGTISDPRAADFLFSCDASHPDTLRIYQSLDYIEDNATVFHAYYLSAVANAKIKNSVALGHFILPPACLQKEIRRKIGSFIWE
notes: Forms large aggregates in isolation; source: E. coli BL21 (DE3), co-expressed with TERB1, purified (Ni-NTA, amylose, ion exchange, SEC)

The target in experiment [1] is B4. Briefly: SEC; co-purification of recombinantly co-expressed proteins from E. coli (Ni-NTA, amylose, ion exchange, tag cleavage, size exclusion chromatography); elution profiles and SDS–PAGE; both purified. In general terms: In gel filtration, larger molecules generally elute earlier.
Experiment [2] addresses T1, full length TERB2 (1–220). The description is as above.
Experiment [3] addresses B4. Put plainly: SEC-SAXS; purified complexes at > 10 mg/ml on Superdex 200 Increase 10/300 GL in 20 mM Tris pH 8.0, 250 mM KCl; ab initio, rigid body and multi-phase modelling; both purified.
For experiment [4], the target named is T1, full length TERB2 (1–220). The experiment is described as above.
In experiment [5] the target is T2, TERB1 TRF1-binding domain (amino acids 561–658) (human). Put plainly: SEC; co-purification of recombinantly co-expressed proteins from E. coli (Ni-NTA, amylose, ion exchange, tag cleavage, size exclusion chromatography); elution profiles and SDS–PAGE; both purified.
Experiment [6] has the same target. Briefly: SEC-SAXS; purified complexes at > 10 mg/ml on Superdex 200 Increase 10/300 GL in 20 mM Tris pH 8.0, 250 mM KCl; ab initio, rigid body and multi-phase modelling; both purified.

These are yes or no findings as the source states them, for the method shown. Some results given as binding are weak or reduced against the parent protein; the word gives no strength.

For the molecule B1, the binding result in experiment [1], in experiment [2], in experiment [3] and in experiment [4] was “binds” in each case.
As to B2, in experiment [5], the binding entry is on record as “binds”.
With B3, the binding result in experiment [2] is listed as “binds”.
Take B4: the binding entry in experiment [6] is recorded as “binds”.
